No constants are given. Whether binding was seen depends on the method and setting. Binding seen in cells or lysates may run through a third protein. For some assays here: A result given as binding can be weak or reduced; the word gives no strength. For some assays here: Where a sequence is shown, tags or fusion partners need not be part of it.
Columns and labels:
Arf1^Q71L-RlucII (human) = Arf1^Q71L-RlucII (human) (UniProt P84077); assay: FRET or BRET; BRET^2 in live HEK293T cells (γ/µ1 also in Arf1-KO cells; some panels with Brefeldin A 10 µM 15 min or co-expressed Arf1-HA forms): low constant amount of the RlucII donor, increasing amounts of the GFP10 acceptor; coelenterazine 400a 5 µM; BRET50 and BRETmax from a one-site saturation fit
[1] = biological target: γ^L68D,L71D-GFP10 (human) (UniProt O43747); assay: co-IP; HEK293T cells transfected, lysed in TNE buffer (150 mM NaCl, 10 mM Tris-HCl pH 7.5, 5 mM EDTA, 0.5% Triton X-100); GFP10 fusion precipitated with anti-GFP antibody and protein-G sepharose overnight at 4 °C; partner detected by Western blot (anti-γ or anti-RLuc)

By UniProt entry, the sequences of proteins in these tests, tags left out. Where a name states a change or a piece, a line headed by the entry shows the natural chain unless it says otherwise.
UniProt P84077: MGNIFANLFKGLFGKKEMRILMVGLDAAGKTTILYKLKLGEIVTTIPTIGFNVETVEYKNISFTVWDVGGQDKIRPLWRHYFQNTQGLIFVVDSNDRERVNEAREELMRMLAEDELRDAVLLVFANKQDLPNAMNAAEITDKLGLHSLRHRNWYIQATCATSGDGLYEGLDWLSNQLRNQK
UniProt O43747: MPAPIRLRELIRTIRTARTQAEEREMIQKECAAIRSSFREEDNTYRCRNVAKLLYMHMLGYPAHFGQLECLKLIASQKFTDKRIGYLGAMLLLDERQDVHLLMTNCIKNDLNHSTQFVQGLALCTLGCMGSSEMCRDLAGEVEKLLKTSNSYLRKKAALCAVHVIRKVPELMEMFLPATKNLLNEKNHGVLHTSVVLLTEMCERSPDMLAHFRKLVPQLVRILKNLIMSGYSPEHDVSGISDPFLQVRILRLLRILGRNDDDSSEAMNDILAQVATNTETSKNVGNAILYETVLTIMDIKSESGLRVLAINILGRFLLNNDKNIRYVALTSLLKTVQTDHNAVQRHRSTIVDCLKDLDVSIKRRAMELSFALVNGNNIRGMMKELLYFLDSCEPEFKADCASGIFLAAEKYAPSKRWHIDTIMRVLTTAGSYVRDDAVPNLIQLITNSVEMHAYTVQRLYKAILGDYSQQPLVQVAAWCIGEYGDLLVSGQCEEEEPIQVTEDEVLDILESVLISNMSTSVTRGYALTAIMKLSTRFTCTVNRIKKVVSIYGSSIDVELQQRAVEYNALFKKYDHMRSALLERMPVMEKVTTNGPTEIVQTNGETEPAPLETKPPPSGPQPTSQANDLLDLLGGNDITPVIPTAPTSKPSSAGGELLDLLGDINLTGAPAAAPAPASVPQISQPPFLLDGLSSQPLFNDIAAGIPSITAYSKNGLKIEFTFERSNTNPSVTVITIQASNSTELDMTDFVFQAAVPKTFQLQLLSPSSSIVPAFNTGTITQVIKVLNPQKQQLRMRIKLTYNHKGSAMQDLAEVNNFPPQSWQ

γ^L68D,L71D-GFP10 (from UniProt O43747)
binding (Arf1^Q71L-RlucII (human)): no binding

B1: β1-GFP10 (AP-1 β1 subunit, wild type) (natural protein, human, UniProt Q10567 1-949, looked up)
chain: MTDSKYFTTTKKGEIFELKAELNSDKKEKKKEAVKKVIASMTVGKDVSALFPDVVNCMQTDNLELKKLVYLYLMNYAKSQPDMAIMAVNTFVKDCEDPNPLIRALAVRTMGCIRVDKITEYLCEPLRKCLKDEDPYVRKTAAVCVAKLHDINAQLVEDQGFLDTLKDLISDSNPMVVANAVAALSEIAESHPSSNLLDLNPQSINKLLTALNECTEWGQIFILDCLANYMPKDDREAQSICERVTPRLSHANSAVVLSAVKVLMKFMEMLSKDLDYYGTLLKKLAPPLVTLLSAEPELQYVALRNINLIVQKRPEILKHEMKVFFVKYNDPIYVKLEKLDIMIRLASQANIAQVLAELKEYATEVDVDFVRKAVRAIGRCAIKVEQSAERCVSTLLDLIQTKVNYVVQEAIVVIKDIFRKYPNKYESVIATLCENLDSLDEPEARAAMIWIVGEYAERIDNADELLESFLEGFHDESTQVQLQLLTAIVKLFLKKPTETQELVQQVLSLATQDSDNPDLRDRGYIYWRLLSTDPVAAKEVVLAEKPLISEETDLIEPTLLDELICYIGTLASVYHKPPSAFVEGGRGVVHKSLPPRTASSESAESPETAPTGAPPGEQPDVIPAQGDLLGDLLNLDLGPPVSGPPLATSSVQMGAVDLLGGGLDSLMGDEPEGIGGTNFVAPPTAAVPANLGAPIGSGLSDLFDLTSGVGTLSGSYVAPKAVWLPAMKAKGLEISGTFTRQVGSISMDLQLTNKALQVMTDFAIQFNRNSFGLAPAAPLQVHAPLSPNQTVEISLPLSTVGSVMKMEPLNNLQVAVKNNIDVFYFSTLYPLHILFVEDGKMDRQMFLATWKDIPNENEAQFQIRDCPLNAEAASSKLQSSNIFTVAKRNVEGQDMLYQSLKLTNGIWVLAELRIQPGNPSCTDLELSLKCRAPEVSQHVYQAYETILKN
notes: β1 subunit of the adaptor protein complex 1 (AP-1), human; amplified by PCR minus the stop codon; also called β-GFP10; full-length β1-GFP10; source: HEK293T, transfected, in live cells (BRET), cell fractions and lysate (co-IP); not shown: GFP10, C-terminal, kept
binding [1]: binds
